Our source for the log2 fold change values is the supplement of paper PMC10849652.

Chains of the proteins cited; added tags and fusions are not shown. Lines headed by an entry give the natural chain unless they say otherwise; changes in a name come on top.
UniProt Q9NUP1: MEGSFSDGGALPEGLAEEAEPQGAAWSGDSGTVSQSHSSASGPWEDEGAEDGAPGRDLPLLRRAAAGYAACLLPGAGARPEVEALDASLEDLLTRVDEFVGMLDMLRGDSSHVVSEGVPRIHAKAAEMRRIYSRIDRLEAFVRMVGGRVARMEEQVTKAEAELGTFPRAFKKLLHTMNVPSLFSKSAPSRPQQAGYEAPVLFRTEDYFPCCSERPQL
UniProt P46379: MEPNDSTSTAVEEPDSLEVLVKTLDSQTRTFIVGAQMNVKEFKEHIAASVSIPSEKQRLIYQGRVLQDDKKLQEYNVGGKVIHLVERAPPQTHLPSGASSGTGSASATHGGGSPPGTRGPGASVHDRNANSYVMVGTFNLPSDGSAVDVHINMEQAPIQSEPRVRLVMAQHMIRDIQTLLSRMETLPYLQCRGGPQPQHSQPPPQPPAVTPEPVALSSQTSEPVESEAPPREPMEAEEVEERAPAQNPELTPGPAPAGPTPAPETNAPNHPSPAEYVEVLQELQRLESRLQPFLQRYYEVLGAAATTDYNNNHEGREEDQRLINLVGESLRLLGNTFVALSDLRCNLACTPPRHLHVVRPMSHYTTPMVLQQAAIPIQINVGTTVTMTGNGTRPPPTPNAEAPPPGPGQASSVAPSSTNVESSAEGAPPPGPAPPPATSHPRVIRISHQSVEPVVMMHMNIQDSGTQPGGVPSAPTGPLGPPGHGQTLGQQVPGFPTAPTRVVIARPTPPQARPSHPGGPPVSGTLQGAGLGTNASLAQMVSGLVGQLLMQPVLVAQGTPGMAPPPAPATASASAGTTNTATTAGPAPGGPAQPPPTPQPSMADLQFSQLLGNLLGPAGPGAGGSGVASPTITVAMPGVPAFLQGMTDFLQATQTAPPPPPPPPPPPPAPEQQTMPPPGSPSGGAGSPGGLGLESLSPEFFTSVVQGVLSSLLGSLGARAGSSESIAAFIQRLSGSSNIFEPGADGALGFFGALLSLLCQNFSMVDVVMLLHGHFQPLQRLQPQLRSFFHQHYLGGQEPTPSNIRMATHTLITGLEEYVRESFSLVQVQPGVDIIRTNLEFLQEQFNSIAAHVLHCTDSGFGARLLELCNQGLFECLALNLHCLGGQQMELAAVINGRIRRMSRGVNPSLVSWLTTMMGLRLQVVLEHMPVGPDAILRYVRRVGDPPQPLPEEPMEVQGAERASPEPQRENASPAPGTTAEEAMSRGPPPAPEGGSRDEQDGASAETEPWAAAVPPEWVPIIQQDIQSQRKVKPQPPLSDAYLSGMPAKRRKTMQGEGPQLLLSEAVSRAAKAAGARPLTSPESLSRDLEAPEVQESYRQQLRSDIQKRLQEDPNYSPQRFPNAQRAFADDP
UniProt Q96GX2: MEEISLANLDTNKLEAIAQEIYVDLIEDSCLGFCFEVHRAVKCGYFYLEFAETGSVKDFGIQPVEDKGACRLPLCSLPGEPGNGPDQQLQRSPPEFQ
UniProt Q67FW5: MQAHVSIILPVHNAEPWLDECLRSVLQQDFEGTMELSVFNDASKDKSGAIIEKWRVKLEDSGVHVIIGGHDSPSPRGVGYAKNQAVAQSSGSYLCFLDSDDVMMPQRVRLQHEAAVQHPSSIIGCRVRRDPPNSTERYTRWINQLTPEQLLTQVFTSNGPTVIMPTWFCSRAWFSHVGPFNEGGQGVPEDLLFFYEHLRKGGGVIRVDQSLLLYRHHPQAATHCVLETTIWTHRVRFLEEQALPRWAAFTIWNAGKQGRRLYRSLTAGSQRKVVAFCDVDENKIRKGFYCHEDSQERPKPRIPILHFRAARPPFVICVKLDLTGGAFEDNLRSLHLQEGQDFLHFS
UniProt P53004: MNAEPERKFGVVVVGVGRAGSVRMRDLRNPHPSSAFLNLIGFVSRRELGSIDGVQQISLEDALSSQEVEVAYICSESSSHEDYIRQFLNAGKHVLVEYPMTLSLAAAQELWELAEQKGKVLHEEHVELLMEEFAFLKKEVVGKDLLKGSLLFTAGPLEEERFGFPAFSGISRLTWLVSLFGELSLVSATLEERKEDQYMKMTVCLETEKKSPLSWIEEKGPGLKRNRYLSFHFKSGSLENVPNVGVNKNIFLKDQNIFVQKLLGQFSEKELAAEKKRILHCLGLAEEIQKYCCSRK
UniProt P46736, whole entry, looked up: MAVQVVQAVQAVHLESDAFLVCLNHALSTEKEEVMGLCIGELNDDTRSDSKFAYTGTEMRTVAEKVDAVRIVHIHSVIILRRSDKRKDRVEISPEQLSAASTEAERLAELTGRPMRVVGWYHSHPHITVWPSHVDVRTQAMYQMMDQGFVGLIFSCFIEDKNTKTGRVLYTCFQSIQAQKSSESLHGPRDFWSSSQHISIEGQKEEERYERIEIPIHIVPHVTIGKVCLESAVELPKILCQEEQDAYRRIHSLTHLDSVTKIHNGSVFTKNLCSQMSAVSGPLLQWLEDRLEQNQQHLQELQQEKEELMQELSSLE
UniProt Q8NFC6: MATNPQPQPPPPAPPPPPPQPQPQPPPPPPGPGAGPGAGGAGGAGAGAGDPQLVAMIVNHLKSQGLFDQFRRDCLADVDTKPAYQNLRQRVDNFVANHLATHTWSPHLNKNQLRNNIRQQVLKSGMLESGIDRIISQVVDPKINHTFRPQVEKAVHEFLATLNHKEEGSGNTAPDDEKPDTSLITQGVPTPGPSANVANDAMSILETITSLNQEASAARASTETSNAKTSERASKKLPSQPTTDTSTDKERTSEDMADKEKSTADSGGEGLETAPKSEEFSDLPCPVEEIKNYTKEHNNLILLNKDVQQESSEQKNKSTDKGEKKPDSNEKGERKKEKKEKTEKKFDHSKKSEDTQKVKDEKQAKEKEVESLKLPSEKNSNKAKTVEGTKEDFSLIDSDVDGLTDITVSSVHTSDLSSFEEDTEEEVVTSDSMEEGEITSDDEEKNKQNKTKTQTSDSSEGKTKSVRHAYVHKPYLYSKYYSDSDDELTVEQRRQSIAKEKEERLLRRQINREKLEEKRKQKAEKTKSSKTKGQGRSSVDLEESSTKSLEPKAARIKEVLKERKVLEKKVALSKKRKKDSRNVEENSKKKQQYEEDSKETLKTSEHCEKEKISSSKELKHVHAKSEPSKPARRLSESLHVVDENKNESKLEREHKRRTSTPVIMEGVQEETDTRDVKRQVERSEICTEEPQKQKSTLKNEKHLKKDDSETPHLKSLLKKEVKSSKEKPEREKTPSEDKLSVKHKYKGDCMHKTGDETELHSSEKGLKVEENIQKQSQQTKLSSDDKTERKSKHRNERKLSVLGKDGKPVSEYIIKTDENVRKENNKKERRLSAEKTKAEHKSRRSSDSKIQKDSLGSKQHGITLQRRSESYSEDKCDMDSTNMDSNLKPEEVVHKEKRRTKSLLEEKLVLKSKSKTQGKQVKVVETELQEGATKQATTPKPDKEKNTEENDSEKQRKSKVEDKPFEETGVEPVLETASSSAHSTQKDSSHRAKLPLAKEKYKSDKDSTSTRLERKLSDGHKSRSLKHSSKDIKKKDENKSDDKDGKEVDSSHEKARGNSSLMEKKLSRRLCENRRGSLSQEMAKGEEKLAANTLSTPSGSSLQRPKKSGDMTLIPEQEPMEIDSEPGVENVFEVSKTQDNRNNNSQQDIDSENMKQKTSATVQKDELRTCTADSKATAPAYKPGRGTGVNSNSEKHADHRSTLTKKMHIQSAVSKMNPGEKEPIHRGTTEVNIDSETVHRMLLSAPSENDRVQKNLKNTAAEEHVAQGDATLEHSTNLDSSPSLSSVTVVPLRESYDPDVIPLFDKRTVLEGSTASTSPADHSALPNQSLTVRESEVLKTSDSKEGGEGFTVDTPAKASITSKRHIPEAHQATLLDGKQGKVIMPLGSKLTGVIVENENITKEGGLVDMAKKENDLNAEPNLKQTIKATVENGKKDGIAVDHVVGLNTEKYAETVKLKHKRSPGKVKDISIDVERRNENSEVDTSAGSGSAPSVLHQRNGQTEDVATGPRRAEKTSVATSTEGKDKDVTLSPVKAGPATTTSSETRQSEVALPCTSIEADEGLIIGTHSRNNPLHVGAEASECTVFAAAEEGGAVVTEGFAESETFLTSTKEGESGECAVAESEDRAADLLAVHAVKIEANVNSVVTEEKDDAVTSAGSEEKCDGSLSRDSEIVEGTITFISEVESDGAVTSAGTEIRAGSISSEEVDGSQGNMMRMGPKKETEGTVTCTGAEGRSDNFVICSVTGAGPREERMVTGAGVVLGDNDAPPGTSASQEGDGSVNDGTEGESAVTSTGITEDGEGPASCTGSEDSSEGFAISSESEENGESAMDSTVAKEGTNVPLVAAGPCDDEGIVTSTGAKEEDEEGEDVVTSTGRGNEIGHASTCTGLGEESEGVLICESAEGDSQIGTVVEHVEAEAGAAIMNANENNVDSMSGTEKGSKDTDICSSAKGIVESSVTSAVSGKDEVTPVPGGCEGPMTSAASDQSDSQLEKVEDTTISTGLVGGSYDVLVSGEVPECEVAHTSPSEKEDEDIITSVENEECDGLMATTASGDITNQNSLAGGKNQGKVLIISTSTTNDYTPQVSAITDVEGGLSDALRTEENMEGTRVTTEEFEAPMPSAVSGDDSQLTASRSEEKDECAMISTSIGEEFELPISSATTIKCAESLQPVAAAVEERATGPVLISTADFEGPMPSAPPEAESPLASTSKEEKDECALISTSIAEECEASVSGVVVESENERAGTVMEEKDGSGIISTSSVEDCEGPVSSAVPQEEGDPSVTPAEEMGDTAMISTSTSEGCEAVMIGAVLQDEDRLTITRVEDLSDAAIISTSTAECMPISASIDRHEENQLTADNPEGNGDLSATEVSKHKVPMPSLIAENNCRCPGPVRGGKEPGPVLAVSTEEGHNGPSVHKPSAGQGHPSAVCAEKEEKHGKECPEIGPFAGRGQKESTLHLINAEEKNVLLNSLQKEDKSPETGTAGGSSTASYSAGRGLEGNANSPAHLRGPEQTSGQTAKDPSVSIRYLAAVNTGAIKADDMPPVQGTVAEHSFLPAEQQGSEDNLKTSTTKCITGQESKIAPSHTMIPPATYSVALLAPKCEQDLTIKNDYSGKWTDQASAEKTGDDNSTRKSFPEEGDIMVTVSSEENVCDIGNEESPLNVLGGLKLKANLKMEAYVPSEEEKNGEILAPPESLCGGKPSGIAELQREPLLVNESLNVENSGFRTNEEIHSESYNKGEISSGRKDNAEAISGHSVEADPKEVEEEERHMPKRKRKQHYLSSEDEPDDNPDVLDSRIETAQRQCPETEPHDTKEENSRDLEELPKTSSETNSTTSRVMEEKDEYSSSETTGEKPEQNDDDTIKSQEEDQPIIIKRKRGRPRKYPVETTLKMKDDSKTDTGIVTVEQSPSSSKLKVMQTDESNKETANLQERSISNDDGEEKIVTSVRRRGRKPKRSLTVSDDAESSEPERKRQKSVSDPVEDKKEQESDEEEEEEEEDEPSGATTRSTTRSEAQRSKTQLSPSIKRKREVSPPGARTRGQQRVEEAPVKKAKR
UniProt Q9Y679: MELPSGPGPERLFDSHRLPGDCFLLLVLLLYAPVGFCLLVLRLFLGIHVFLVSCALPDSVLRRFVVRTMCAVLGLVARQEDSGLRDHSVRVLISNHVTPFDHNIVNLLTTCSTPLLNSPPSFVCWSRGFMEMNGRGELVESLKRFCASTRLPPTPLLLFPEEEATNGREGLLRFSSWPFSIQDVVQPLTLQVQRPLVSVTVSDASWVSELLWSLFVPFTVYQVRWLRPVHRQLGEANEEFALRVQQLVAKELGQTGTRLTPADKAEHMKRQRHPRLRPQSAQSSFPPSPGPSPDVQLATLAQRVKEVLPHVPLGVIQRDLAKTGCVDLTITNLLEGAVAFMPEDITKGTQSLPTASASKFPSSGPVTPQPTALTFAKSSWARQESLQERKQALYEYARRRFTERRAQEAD
UniProt Q92560: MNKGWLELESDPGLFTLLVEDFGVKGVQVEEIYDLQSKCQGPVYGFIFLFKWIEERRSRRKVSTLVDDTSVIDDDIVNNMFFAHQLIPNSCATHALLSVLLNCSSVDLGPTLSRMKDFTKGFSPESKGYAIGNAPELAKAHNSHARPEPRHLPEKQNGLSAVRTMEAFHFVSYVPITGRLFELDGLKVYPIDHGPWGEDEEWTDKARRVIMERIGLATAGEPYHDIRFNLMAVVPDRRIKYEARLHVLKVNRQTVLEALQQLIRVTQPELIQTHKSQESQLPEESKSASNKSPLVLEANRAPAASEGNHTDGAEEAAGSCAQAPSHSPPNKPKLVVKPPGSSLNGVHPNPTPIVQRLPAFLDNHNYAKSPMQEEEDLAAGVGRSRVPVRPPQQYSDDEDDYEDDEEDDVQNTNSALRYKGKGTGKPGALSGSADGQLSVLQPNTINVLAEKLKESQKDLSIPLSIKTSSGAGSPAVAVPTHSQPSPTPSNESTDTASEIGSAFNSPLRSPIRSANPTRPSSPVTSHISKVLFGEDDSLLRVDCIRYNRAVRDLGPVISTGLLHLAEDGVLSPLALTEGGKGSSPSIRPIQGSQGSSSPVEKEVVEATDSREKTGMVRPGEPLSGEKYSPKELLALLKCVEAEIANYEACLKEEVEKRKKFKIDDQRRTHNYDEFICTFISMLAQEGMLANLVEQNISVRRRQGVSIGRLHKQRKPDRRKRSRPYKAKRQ

The list shows a part of the results.

Compound in the first experiment: CC1=C(C(CC(=O)N1)C2=CC=C(C=C2)C(F)(F)F)C(=O)NC3=C(C=C4C(=C3)C=NN4)F
The experiment in a line: log2 fold change, soluble protein after heating vs DMSO (PISA); higher = thermal stabilisation; K562 cells, 10 uM, 30 min; active = over 0.2 and 3.5 SD of the protein, either way, in both replicates (recomputed). The procedure, abridged:
(§1)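 For each measurement, 10 μM compound was applied for 30 min to K562 cells at 2×10^6 cells/mL. Aliquots were heated for 3 min across 48°C-58°C, pooled, and extracted in PBS with 0.5% NP-40 at 4°C; the supernatant after 21,000xg for 90 min was soluble protein. This was quantified by TMTpro 16plex LC-MS/MS with channel sums equalised, and thermal stability was reported relative to control samples from duplicates, on a log2 fold-change scale.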
Consider ATXN2 (UniProt Q99700), for which the log2 fold change was inactive: -0.003.
Same read-out and setting: next, BPGM (UniProt P07738): inactive: 0.02.
Still for that read-out and setting: next, BAX isoform 2 (UniProt Q07812): inactive: 0.001; BCL2L2 isoform 2 (UniProt Q92843): inactive: 0.004.
Still for that read-out and setting: next, BACH1 (UniProt O14867): inactive: 0.022; BAIAP2L1 (UniProt Q9UHR4): inactive: 0.007; BLOC1S4 (UniProt Q9NUP1): inactive: 0.013.
For the target BICD2 isoform 2 (UniProt Q8TD16), the log2 fold change was inactive: 0.009.
On the same count and under the same terms, next, BAG6 isoform 3 (UniProt P46379): inactive: -0.021; BIRC2 (UniProt Q13490): inactive: -0.058.
Same read-out and setting: next, ATXN7L3B (UniProt Q96GX2): inactive: 0.028; ATXN2L (UniProt Q8WWM7): inactive: 0.013; BORCS5 (UniProt Q969J3): inactive: 0.018.
On the same count and under the same terms, next, B3GAT3 (UniProt O94766): inactive: 0.011.
Take BNIP2 (UniProt J3KN59): the log2 fold change was inactive: -0.002.
Still for that read-out and setting: next, B3GNTL1 (UniProt Q67FW5): inactive: 0.031; BCAS2 (UniProt O75934): inactive: -0.014.
Same read-out and setting: next, BLOC1S6 (UniProt Q9UL45): inactive: 0.119; BLVRA (UniProt P53004): inactive: -0.008.
With BCS1L (UniProt Q9Y276), the log2 fold change is inactive: -0.017.
Same read-out and setting: next, BRCC3 (UniProt P46736): inactive: 0.027; BOD1L1 (UniProt Q8NFC6): inactive: -0.009.
In the case of B3GNT2 (UniProt Q9NY97), the log2 fold change was inactive: 0.006.
Still for that read-out and setting: next, B4GALT3 (UniProt O60512): inactive: -0.093.
Still for that read-out and setting: next, AVL9 (UniProt Q8NBF6): inactive: 0.01.
On the same count and under the same terms, next, BLOC1S2 (UniProt Q6QNY1): inactive: 0.011; BRAT1 (UniProt Q6PJG6): inactive: 0; BORCS6 (UniProt Q96GS4): inactive: 0.15.

Compound in a further experiment: CC1=C(C2=C(C=C1)C(=O)C3=CC=CC=C3N2CCCN)C
The description is as above. The procedure, abridged:
as §1
In the case of ATXN2 (UniProt Q99700), the log2 fold change is inactive: 0.119.
The same measure, in the same setting: next, BCAR1 isoform 6 (UniProt P56945): inactive: -0.034.
Still for that read-out and setting: next, BPGM (UniProt P07738): inactive: 0.017; BRAP (UniProt Q7Z569): active: 0.263; BAX isoform 2 (UniProt Q07812): inactive: 0.118.
On the same count and under the same terms, next, BPHL (UniProt Q86WA6): inactive: -0.244.
In the case of BCL2L2 isoform 2 (UniProt Q92843), the log2 fold change is inactive: 0.055.
Turning to BACH1 (UniProt O14867), the log2 fold change was inactive: -0.035.
Same read-out and setting: next, BAIAP2L1 (UniProt Q9UHR4): inactive: 0.029; BCCIP (UniProt Q9P287): active: 0.255; BLOC1S4 (UniProt Q9NUP1): inactive: 0.044.
For the target BICD2 isoform 2 (UniProt Q8TD16), the log2 fold change is inactive: 0.036.
Still for that read-out and setting: next, BAG6 isoform 3 (UniProt P46379): inactive: -0.01.
The same measure, in the same setting: next, BRIX1 (UniProt Q8TDN6): active: -1.43.
Still for that read-out and setting: next, AUP1 (UniProt Q9Y679): inactive: 0.08.
Take B4GALT1 (UniProt P15291): the log2 fold change is inactive: -0.03.
Still for that read-out and setting: next, BIRC2 (UniProt Q13490): inactive: -0.012; ATXN7L3B (UniProt Q96GX2): inactive: 0.085; ATXN2L (UniProt Q8WWM7): inactive: 0.008.
For BORCS5 (UniProt Q969J3), the log2 fold change is inactive: -0.005.
Still for that read-out and setting: next, B3GAT3 (UniProt O94766): inactive: 0.061; BNIP2 (UniProt J3KN59): inactive: 0.032.
Still for that read-out and setting: next, B3GNTL1 (UniProt Q67FW5): inactive: 0.061; BCAS2 (UniProt O75934): inactive: 0.163; BLOC1S6 (UniProt Q9UL45): inactive: 0.
The same measure, in the same setting: next, BLVRA (UniProt P53004): inactive: 0.038; BOP1 (UniProt Q14137): inactive: -0.078; BCS1L (UniProt Q9Y276): inactive: -0.018.
For BRCC3 (UniProt P46736), the log2 fold change is inactive: 0.061.
With BCCIP isoform 2 (UniProt Q9P287), the log2 fold change was inactive: 0.077.
The same measure, in the same setting: next, BOD1L1 (UniProt Q8NFC6): inactive: 0.158; B3GNT2 (UniProt Q9NY97): inactive: -0.12.
For B4GALT3 (UniProt O60512), the log2 fold change was inactive: -0.02.
On the same count and under the same terms, next, AVL9 (UniProt Q8NBF6): inactive: 0.013; BAP1 (UniProt Q92560): inactive: -0.17.
On the same count and under the same terms, next, BLOC1S2 (UniProt Q6QNY1): inactive: 0.043.
Turning to BCAP29 isoform 2 (UniProt Q9UHQ4), the log2 fold change is inactive: 0.052.
On the same count and under the same terms, next, BRAT1 (UniProt Q6PJG6): inactive: 0.079; BORCS6 (UniProt Q96GS4): inactive: 0.037.
The same measure, in the same setting: next, AURKA (UniProt O14965): inactive: 0.059.
